Test results reported in publication PMC10066265, “Inhibitor-3 inhibits Protein Phosphatase 1 via a metal binding dynamic protein–protein interaction” (Nature Communications, 2023).
No constants are given. Whether binding was seen depends on the method and setting.

Protein sequences, listed by entry. Tags and fused reporters are not part of them. Lines headed by an entry give the natural chain unless they say otherwise; changes in a name come on top. Residues count along the entry.
UniProt P62136, residues 7-330: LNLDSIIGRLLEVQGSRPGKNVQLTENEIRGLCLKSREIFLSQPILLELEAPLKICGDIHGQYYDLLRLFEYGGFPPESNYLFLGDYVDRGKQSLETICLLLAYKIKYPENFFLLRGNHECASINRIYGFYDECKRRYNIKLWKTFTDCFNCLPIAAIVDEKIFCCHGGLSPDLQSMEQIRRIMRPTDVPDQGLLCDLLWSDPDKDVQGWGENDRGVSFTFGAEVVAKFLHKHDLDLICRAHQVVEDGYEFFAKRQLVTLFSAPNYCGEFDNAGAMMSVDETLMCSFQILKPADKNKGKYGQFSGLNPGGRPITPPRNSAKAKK
UniProt O60927: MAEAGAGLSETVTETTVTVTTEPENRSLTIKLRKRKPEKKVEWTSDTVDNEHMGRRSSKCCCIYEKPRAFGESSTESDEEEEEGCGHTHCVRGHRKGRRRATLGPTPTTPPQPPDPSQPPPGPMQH

What was measured:
PP1α7-330 [1] = target: PP1α7-330 (UniProt P62136); assay: SPR; His6-PP1 captured on a Ni-NTA sensor chip (NiHC200M), I3 variants injected; 25 °C; 20 mM Tris pH 8.0, 500 mM NaCl, 1 mM MnCl2, 0.5 mM TCEP, 0.05% Tween-20; one-to-one one-state or one-to-one two-state fit; both purified
PP1α7-330 [2] = target: PP1α7-330 (UniProt P62136); assay: SPR; His6-PP1 captured on Ni-NTA chip (NiHC200M), I3 variants injected; 25 °C; 20 mM Tris pH 8.0, 500 mM NaCl, 1 mM MnCl2, 0.5 mM TCEP, 0.05% Tween-20; one-to-one one state or one-to-one two state model (TraceDrawer); both purified
His6-PP1α_(7-330) = His6-PP1α_(7-330) (UniProt P62136 7-330); assay: SPR; His6-PP1 captured on a Ni-NTA sensorchip (NiHC200M), I3 variants injected; 25 °C; 20 mM Tris pH 8.0, 500 mM NaCl, 1 mM MnCl2, 0.5 mM TCEP, 0.05% Tween-20; one-to-one one state or one-to-one two state model; both purified

| binding (PP1α7-330 [1]) | binding (PP1α7-330 [2]) | binding (His6-PP1α_(7-330)) | Binder |
| --- | --- | --- | --- |
| no binding (tested: 10000 nM) |  |  | EEEEEGCGHTHCV (peptide, UniProt O60927 79-91) [I379-91 peptide] |
|  | no binding (tested: 10000 nM) | no binding | EEEEEGCGHTHCV (peptide, UniProt O60927 79-91) [I3_(79-91) peptide] |
